Assay results: the supplement of paper PMC10849652
The other results are listed elsewhere or left out.

Protein sequences, listed by entry. Tags and fused reporters are not part of them. Lines headed by an entry give the natural chain unless they say otherwise; changes in a name come on top.
UniProt Q9NYF3: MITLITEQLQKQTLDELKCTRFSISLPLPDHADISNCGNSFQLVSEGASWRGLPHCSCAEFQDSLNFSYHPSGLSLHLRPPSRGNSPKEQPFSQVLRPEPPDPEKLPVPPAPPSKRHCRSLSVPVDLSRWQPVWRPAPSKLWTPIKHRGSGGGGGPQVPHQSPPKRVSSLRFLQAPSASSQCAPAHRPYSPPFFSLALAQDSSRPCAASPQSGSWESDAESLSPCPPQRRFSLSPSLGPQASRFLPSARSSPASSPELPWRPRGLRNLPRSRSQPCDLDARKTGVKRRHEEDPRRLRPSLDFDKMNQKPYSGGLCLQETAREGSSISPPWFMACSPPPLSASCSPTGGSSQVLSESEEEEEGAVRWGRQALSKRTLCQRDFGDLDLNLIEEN
UniProt Q8IXR5: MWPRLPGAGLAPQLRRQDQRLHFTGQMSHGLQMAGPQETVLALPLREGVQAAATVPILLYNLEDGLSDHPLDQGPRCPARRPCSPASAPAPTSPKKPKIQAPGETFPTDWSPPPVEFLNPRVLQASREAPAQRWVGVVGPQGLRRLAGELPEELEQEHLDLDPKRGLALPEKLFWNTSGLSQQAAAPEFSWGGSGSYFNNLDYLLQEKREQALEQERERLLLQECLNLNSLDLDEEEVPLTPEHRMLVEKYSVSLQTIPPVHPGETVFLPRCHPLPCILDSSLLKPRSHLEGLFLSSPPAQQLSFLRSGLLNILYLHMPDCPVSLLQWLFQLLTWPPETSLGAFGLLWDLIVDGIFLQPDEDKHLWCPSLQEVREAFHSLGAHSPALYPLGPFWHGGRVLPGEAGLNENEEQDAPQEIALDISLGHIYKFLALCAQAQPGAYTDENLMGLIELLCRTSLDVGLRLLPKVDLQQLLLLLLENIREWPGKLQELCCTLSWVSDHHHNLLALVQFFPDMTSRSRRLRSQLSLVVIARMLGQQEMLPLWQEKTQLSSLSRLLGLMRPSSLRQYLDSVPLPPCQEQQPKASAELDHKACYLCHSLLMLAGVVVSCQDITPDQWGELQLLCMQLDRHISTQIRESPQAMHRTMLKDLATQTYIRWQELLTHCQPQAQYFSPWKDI
UniProt Q9NY74: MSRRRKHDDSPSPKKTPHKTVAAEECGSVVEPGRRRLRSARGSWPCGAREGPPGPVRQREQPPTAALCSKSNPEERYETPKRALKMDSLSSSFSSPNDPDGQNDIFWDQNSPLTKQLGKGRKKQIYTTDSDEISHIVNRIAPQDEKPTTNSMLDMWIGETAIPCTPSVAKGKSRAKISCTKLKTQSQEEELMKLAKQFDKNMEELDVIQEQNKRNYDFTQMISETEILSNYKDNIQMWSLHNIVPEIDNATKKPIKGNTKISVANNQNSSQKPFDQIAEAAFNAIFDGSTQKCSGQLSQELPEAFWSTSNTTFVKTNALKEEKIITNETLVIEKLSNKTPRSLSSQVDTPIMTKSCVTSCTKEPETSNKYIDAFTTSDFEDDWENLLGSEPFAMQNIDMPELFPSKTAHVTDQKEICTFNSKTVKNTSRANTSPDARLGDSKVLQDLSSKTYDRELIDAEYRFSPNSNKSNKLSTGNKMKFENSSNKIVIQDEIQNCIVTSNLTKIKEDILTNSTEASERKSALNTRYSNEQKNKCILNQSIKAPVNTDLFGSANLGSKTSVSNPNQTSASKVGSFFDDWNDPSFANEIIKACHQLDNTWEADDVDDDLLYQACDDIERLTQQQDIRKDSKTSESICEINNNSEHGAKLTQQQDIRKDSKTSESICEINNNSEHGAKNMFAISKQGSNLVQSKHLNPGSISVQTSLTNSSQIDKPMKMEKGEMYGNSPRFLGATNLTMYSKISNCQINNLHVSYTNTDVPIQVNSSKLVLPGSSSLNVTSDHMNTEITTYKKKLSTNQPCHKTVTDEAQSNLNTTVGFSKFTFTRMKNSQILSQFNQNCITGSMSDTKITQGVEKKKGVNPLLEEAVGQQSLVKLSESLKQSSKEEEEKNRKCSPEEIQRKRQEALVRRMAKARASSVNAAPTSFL
UniProt Q6PEV8: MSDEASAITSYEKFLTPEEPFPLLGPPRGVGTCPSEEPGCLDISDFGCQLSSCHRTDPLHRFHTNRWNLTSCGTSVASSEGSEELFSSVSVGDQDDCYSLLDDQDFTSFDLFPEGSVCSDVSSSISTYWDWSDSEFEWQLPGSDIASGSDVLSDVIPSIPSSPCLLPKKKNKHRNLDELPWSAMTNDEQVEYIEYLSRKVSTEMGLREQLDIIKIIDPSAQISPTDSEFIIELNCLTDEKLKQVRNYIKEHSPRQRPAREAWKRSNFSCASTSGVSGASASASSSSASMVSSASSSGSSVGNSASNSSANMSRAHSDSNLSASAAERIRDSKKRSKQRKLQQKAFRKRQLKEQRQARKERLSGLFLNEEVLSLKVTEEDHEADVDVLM
UniProt Q5VUB5: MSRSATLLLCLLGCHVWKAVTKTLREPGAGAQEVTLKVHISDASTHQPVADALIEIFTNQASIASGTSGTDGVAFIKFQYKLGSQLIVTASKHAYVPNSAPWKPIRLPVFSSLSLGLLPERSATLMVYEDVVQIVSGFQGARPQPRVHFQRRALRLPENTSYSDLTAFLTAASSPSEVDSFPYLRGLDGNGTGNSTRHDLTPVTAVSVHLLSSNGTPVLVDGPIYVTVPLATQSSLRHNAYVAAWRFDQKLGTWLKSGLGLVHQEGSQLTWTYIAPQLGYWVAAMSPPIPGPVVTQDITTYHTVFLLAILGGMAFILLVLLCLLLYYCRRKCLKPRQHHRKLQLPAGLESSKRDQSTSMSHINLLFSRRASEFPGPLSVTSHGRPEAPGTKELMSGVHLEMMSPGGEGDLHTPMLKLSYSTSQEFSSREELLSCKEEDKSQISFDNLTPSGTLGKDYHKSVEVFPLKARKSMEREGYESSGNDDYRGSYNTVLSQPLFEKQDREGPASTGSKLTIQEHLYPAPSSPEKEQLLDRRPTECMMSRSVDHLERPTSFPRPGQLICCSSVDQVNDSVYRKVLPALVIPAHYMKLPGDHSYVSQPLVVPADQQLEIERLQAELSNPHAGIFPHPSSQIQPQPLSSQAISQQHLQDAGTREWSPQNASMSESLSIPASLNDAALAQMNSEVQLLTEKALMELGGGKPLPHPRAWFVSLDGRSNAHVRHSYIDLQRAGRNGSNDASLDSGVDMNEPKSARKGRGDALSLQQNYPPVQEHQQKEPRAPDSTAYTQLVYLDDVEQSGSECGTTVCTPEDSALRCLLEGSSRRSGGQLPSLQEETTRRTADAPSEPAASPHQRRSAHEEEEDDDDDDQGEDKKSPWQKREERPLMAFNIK
UniProt Q86V87: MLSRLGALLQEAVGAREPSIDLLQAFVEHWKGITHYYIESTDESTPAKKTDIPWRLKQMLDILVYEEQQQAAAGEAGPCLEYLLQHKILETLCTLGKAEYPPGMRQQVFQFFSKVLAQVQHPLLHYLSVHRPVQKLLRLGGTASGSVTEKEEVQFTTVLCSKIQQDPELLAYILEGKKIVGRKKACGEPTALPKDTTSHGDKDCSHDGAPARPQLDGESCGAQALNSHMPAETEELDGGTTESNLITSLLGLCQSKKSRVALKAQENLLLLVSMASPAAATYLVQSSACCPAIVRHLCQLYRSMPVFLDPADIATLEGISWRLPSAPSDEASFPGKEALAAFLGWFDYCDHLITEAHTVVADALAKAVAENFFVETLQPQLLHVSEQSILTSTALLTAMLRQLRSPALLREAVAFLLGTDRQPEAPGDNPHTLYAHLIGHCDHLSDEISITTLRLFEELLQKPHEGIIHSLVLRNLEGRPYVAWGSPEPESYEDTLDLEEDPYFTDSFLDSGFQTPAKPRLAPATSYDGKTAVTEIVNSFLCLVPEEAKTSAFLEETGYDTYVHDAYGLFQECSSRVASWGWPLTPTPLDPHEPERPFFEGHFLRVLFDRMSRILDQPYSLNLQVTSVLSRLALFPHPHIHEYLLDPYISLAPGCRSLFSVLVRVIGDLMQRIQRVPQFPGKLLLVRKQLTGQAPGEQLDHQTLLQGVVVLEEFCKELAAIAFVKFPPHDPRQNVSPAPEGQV
UniProt Q8IW50: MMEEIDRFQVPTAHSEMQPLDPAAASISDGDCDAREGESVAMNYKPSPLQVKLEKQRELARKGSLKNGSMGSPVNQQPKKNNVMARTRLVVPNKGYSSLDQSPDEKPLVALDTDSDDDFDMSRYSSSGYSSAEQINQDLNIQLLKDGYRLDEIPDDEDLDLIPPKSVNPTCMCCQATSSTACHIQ
UniProt Q6NZ36: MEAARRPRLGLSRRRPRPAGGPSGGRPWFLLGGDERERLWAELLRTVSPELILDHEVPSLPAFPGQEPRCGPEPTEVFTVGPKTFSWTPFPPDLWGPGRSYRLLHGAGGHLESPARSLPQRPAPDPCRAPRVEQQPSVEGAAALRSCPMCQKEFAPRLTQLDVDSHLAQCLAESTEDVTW
UniProt Q9BQ89: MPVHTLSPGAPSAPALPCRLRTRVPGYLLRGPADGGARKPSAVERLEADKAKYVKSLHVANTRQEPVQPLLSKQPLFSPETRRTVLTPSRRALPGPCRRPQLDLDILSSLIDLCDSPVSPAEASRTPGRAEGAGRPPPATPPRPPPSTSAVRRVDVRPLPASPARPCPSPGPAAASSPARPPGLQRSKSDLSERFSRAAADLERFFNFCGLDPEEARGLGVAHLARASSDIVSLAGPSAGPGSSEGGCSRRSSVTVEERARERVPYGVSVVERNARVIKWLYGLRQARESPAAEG
UniProt Q96CN4: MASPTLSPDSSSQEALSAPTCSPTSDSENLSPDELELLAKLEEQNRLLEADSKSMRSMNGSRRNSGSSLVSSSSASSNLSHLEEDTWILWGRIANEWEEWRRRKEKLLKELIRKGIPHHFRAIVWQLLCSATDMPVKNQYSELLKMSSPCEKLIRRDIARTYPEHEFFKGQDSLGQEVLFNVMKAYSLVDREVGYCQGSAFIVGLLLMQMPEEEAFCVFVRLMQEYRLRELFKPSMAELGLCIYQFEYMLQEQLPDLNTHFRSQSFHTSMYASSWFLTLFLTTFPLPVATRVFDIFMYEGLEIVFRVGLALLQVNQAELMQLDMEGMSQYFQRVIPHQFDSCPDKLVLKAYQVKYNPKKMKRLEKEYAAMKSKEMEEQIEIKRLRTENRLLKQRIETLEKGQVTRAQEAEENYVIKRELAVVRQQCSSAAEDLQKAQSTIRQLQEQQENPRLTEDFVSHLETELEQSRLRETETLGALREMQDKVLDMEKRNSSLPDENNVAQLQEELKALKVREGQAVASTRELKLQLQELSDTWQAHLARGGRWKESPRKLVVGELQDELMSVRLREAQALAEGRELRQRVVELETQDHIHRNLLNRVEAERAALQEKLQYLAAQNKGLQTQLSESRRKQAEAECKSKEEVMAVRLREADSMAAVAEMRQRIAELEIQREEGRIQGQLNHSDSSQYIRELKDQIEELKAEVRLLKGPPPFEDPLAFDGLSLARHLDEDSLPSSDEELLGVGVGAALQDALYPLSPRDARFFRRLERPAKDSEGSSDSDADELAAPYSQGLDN
UniProt P43268: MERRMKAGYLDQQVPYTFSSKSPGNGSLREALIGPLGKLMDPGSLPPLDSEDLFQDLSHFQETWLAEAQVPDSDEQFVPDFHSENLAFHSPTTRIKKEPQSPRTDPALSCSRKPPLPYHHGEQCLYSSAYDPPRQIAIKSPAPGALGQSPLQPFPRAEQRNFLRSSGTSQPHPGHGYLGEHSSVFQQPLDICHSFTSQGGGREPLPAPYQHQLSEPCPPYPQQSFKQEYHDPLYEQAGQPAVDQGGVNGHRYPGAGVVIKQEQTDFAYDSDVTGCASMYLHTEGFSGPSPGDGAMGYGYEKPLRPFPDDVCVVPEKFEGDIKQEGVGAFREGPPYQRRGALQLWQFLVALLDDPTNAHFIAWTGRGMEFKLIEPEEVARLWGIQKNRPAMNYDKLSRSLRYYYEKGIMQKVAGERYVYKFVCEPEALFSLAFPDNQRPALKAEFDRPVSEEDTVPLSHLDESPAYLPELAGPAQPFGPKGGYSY
UniProt Q56NI9: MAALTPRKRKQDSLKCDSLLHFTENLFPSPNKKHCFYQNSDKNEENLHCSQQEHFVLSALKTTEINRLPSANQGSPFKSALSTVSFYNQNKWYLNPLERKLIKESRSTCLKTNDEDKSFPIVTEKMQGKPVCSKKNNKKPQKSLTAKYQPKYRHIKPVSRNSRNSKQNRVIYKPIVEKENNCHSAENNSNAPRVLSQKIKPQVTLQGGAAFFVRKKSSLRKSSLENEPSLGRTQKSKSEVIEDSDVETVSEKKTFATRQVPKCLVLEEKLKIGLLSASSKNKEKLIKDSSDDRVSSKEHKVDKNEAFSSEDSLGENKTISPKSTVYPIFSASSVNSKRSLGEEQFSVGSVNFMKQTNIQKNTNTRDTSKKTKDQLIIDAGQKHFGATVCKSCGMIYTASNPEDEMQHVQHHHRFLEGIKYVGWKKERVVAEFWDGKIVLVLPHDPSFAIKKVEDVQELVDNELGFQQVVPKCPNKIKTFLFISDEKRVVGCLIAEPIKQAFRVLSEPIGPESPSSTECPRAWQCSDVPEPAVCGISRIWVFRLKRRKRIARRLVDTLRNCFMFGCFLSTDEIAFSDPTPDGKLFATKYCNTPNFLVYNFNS

Legend:
Assay in all cases: log2 fold change, soluble protein after heating vs DMSO (PISA); higher = thermal stabilisation; K562 lysate, 10 uM; active = over 0.2 and 3.5 SD of the protein, either way, in both replicates (recomputed)
barasertib = compound: CCN(CCCOc1ccc2c(Nc3cc(CC(=O)Nc4cccc(F)c4)[nH]n3)ncnc2c1)CCOP(=O)(O)O [barasertib]
Procedure, shortened: (§1)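 Thermal stability, expressed as log-two fold change relative to solvent controls, is given from duplicates. Crude K562 extract in PBS pH 7.4 with 1 mM MgCl2, at 1 mg/mL protein, was treated with 10 μM compound for 30 min and heated in aliquots for 3 min across 48°C-58°C. After pooling, adjustment to 0.5% NP-40 at 4°C and centrifugation at 21,000xg for 90 min, supernatant protein was measured by TMTpro 16plex LC-MS/MS with channel sums equalised.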

[1] = compound: CCn1c(C(=O)N(C2CC2)C2CC2)cc2c3c(ncn3C)c(Nc3cc(C)n(C)n3)nc21
Procedure, shortened: as §1

[2] = compound: CCn1cc(-c2ccnc3[nH]c(-c4cccc(CN(C)C)c4)cc23)c(-c2ccc(NC(=O)N(C)C)cc2)n1
Procedure, shortened: as §1

[3] = compound: CN1CCC(CNc2ccc3ncc(-c4cccc(OC(F)(F)F)c4)n3n2)CC1
Procedure, shortened: as §1

[4] = compound: CCCS(=O)(=O)Nc1ccc(F)c(C(=O)c2c[nH]c3ncc(Cl)cc23)c1F
Procedure, shortened: as §1

[5] = compound: CC[C@@H]1C(=O)N(C)c2cnc(Nc3ccc(C(=O)NC4CCN(C)CC4)cc3OC)nc2N1C1CCCC1
Procedure, shortened: as §1

volasertib = compound: CC[C@@H]1C(=O)N(C)c2cnc(Nc3ccc(C(=O)N[C@H]4CC[C@H](N5CCN(CC6CC6)CC5)CC4)cc3OC)nc2N1C(C)C [volasertib]
Procedure, shortened: as §1

saracatinib = compound: CN1CCN(CCOc2cc(OC3CCOCC3)c3c(Nc4c(Cl)ccc5c4OCO5)ncnc3c2)CC1 [saracatinib]
Procedure, shortened: as §1

sotrastaurin = compound: CN1CCN(c2nc(C3=C(c4c[nH]c5ccccc45)C(=O)NC3=O)c3ccccc3n2)CC1 [sotrastaurin]
Procedure, shortened: as §1

vemurafenib = compound: CCCS(=O)(=O)Nc1ccc(F)c(C(=O)c2c[nH]c3ncc(-c4ccc(Cl)cc4)cc23)c1F [vemurafenib]
Procedure, shortened: as §1

Measured: log2 fold change

ESRRB isoform 1 (UniProt O95718)
inactive: barasertib -0.004 | [1] -0.118 | [2] 0.242 | [3] -0.127

FAM53C (UniProt Q9NYF3)
inactive: [4] 0.043 | barasertib -0.064 | [5] 0.087 | volasertib -0.121 | [1] 0.054 | [2] -0.122 | [3] -0.144 | saracatinib 0.104 | sotrastaurin 0.046

FAM122B isoform 2 (UniProt Q7Z309)
inactive: [1] 0.149

FAM160A2 isoform 2 (UniProt Q8N612)
inactive: vemurafenib 0.076 | barasertib 0.067 | [5] -0.03 | [2] 0.024 | [3] 0.038 | saracatinib 0.012 | sotrastaurin 0.108

ESPN (UniProt B1AK53)
inactive: [5] -0.003 | [1] -0.193 | saracatinib -0.016

FAM178B (UniProt Q8IXR5)
inactive: [5] 0.21 | sotrastaurin -0.07

ETAA1 (UniProt Q9NY74)
inactive: vemurafenib -0.105 | [5] 0.255

FAM104A isoform 2 (UniProt Q969W3)
inactive: barasertib 0.063 | [1] 0.443 | saracatinib 0.371

FAM234B (UniProt A2RU67)
inactive: [4] 0.106 | volasertib -0.047 | [1] -0.127

FAM199X (UniProt Q6PEV8)
inactive: sotrastaurin -0.222

EXD2 (UniProt Q9NVH0)
inactive: vemurafenib -0.047 | [1] -0.145 | saracatinib 0.049 | sotrastaurin 0.038

FAM204A (UniProt Q9H8W3)
active: [3] -0.614
inactive: vemurafenib -0.003 | [1] 0.059 | [2] 0.273 | sotrastaurin -0.083

FAM171A1 (UniProt Q5VUB5)
inactive: [4] 0.208 | volasertib -0.207 | [1] 0.097 | saracatinib 0.229

EURL (UniProt Q9NYK6)
inactive: [4] 0.188 | volasertib -0.113 | [2] 0.038 | [3] -0.045 | saracatinib 0.035

FAM72C (UniProt H0Y354)
inactive: vemurafenib -0.157 | [1] 0.138 | [2] -0.204 | [3] 0

F2R (UniProt P25116)
inactive: [2] -0.014 | [3] 0.284 | sotrastaurin 0.083

FAM13A (UniProt O94988)
inactive: [1] 0.044 | saracatinib 0.127 | sotrastaurin 0.088

FAM120A, A0A494C0Y9
inactive: [1] 0.004 | saracatinib -0.169

ERN1 (UniProt O75460)
inactive: [5] 0.073

FAM160B2 (UniProt Q86V87)
inactive: vemurafenib 0.04 | [5] 0.018 | [1] 0.014 | [2] 0.125 | [3] -0.242 | sotrastaurin 0.132

FAM135A (UniProt Q9P2D6)
inactive: barasertib 0.067 | [1] -0.003 | [2] 0.129 | [3] 0.01 | saracatinib 0.138 | sotrastaurin 0.076

ERV3-1 (UniProt Q14264)
inactive: [5] 0.043 | saracatinib 0 | sotrastaurin -0.071

FAM219A (UniProt Q8IW50)
inactive: [4] -0.005 | barasertib 0.025 | [5] 0.092 | volasertib 0.009 | [1] -0.173 | [2] -0.185 | [3] 0.014 | saracatinib -0.045 | sotrastaurin -0.16

FAAP20 isoform 2 (UniProt Q6NZ36)
inactive: [2] -0.106 | [3] -0.161 | sotrastaurin -0.123

FAM110A (UniProt Q9BQ89)
inactive: [4] -0.011 | barasertib -0.061 | volasertib -0.07 | [2] -0.117 | [3] 0.058 | sotrastaurin 0.259

EVI5L isoform 2 (UniProt Q96CN4)
inactive: [2] 0.057 | [3] -0.183

ETV4 (UniProt P43268)
inactive: vemurafenib -0.005 | [5] -0.272 | [1] 0.002 | [2] -0.046 | [3] -0.042 | sotrastaurin -0.105

ETV5 isoform 2 (UniProt P41161)
inactive: vemurafenib -0.036 | [5] -0.155 | [2] 0.009 | [3] 0.014

EXO5 (UniProt Q9H790)
inactive: barasertib 0.111 | [1] -0.022 | sotrastaurin 0.128

EXOC3L2, A0A1C7CYX0
inactive: [5] 0.162 | [2] -0.049 | [3] -0.055 | saracatinib 0.063 | sotrastaurin 0.057

F10 (UniProt P00742)
inactive: barasertib 0.058

ETV1 (UniProt P50549)
inactive: [1] -0.046 | saracatinib 0.237

ETV3 (UniProt P41162)
inactive: [5] 0.096 | [1] 0.051

FAM219B (UniProt Q5XKK7)
inactive: barasertib -0.011 | [2] 0.115 | [3] -0.139 | sotrastaurin 0.042

FAM3A (UniProt Q9BU27)
inactive: [1] -0.086 | saracatinib -0.204

ESCO2 (UniProt Q56NI9)
inactive: [4] 0.022 | [5] 0.032 | volasertib 0.135 | [1] -0.041 | [2] 0.473 | [3] -0.282 | saracatinib 0.112 | sotrastaurin 0.146

Quoted at random: 2 entries already listed, in no set order.
FAM204A (UniProt Q9H8W3)
active: [3] -0.614
inactive: vemurafenib -0.003 | [1] 0.059 | [2] 0.273 | sotrastaurin -0.083

ESRRB isoform 1 (UniProt O95718)
inactive: barasertib -0.004 | [1] -0.118 | [2] 0.242 | [3] -0.127

Remaining list, next part.

EVA1B (UniProt Q9NVM1)
inactive: [1] 0.282 | saracatinib -0.001 | sotrastaurin -0.137

EVI2B isoform 2 (UniProt P34910)
inactive: [2] 0.045 | [3] 0.038
